Library screening results

From ChEMBL document CHEMBL3988442, “University of Dundee, Small-Polar-MMV Screening Library” (2021).

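Whole-cell assay for inhibitors of Mycobacterium tuberculosis growth, labelled Cornell in the record; the read-out is not stated. The concentration is filed as 10 mM, unlikely as a test dose, so the dose is not known. Higher means stronger inhibition (inferred from two other growth screens of the library). About 53,000 compounds were tested under these conditions; 1.7% (about 900) showed 50% or more at least once.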

Values are the deposited “Percent Effect”, in %. The controls that fix the scale are not given in the record; negative values are as filed. Compounds were drawn at random from those tested, without regard to their results.

| # | structure | percent effect |
|---|---|---|
| 1 | `CNC(=O)CN(C)C(=O)c1cc(Cl)c(Cl)n1C` | -13.68% |
| 2 | `Cc1nn2cnnc2c(C)c1CCC(=O)Nc1nc2c(s1)CCC2` | 24.68% |
| 3 | `CCN(C(=O)CN1CCCC1Cc1ccccc1)c1ccccc1` (centres unmarked) | 12.04% |
| 4 | `CC(C)CC(=O)N1CCCCC(NC(=O)CCc2cccnc2)C1` (centres unmarked) | 15.74% |
| 5 | `COc1ncc(C(=O)N2CCCC3(C=Cc4ccccc4O3)CC2)cn1` (centres unmarked) | 4.521% |
| 6 | `Cc1noc(CN2CCN(Cc3cccs3)CC2)n1` | -2.487% |
| 7 | `CCSc1ccccc1C(=O)N1CCC(S(=O)(=O)c2nncn2C)CC1` | -20.4% |
| 8 | `CC(=O)NCc1cc2n(n1)CCN(Cc1cc(-c3ccccc3)no1)C2` | 13.9% |
| 9 | `[H][C@@]12CCN(C(=O)c3ccccc3)C[C@@]1([H])O[C@@H](c1nccs1)C2` | 20.04% |
| 10 | `COCC(=O)N1CCC(C(=O)c2cc(C)cnc2N)CC1` | -14.25% |
| 11 | `CC(C)N1CC(C(=O)NCCOc2ccc3c(c2)OCO3)CC1=O` (centres unmarked) | 16.57% |
| 12 | `CS(=O)(=O)NCC(=O)NC1CCc2nccn2C1` (centres unmarked) | 14.52% |
| 13 | `N#Cc1ncn(CCC(=O)Nc2ccccc2F)n1` | 26.46% |
| 14 | `CC(C)OCCC(=O)Nc1ncn(CC(=O)N2CCCCCC2)n1` | -1.479% |
| 15 | `O=C(O)C(F)(F)F.O=C(c1ccco1)N1CC2(CCNCC2)c2cc(Cl)ccc21` | -23.19% |
| 16 | `Cc1noc(C)c1-c1cccc(CC2CCN(C(=O)c3cscn3)C2)n1` (centres unmarked) | 26.46% |
| 17 | `O=C(O)C(F)(F)F.O=C(O)C(F)(F)F.[H][C@@]12CN(Cc3ccc(C)s3)C[C@@]1([H])N(Cc1ccncc1)C(=O)CO2` | 15.06% |
| 18 | `CN1CCN(Cc2ccccc2Oc2nccc3occc23)CC1` | -37.08% |
| 19 | `CC(NC(=O)NCc1c(F)cccc1Cl)(C(=O)O)c1ccco1` (centres unmarked) | -13.34% |
| 20 | `Cc1ccc(CN2CCc3nnc(CN4CCCC4=O)n3CC2)s1.O=C(O)C(F)(F)F` | 32.68% |
| 21 | `CN(C)c1ncccc1CNS(=O)(=O)c1ccccc1F` | 12.73% |
| 22 | `CN1CCC(Cc2cc(Nc3ncccn3)ncn2)CC1` | 3.18% |
| 23 | `CC(=O)N1CCC(N2CCOC[C@H]2c2nc(-c3ccc(Cl)s3)c[nH]2)CC1` | 10.59% |
| 24 | `Cc1ccc(S(N)(=O)=O)cc1C(=O)NC1CCCN(C)C1` (centres unmarked) | 24.82% |
| 25 | `COc1ccc(CN(Cc2cn(C)nc2C)CC2CCCO2)c(OC)c1` (centres unmarked) | 3.931% |
| 26 | `CNC(=O)c1sc2ccccc2c1CC1CCCN1Cc1cnc(C)s1` (centres unmarked) | -0.8391% |
| 27 | `O=C(CSc1nnc(N2CCCC2)s1)NC(=O)Nc1ccccc1` | 45.44% |
| 28 | `O=C(O)c1c(-c2ccncc2)ncc2c1CCN(Cc1ccco1)C2` | 2.118% |
| 29 | `OCCN1CCC(CNCCOCC(F)(F)F)CC1` | -4.54% |
| 30 | `CC(C)CN1CC2(CCN(C(=O)C(O)c3cccc(Cl)c3)CC2)CC1=O` (centres unmarked) | 19.01% |
| 31 | `CCN(CC)CCCNCc1cc2cccc(C)c2[nH]c1=O` | 1.98% |
| 32 | `CCc1cc(-c2cc[nH]n2)nc(N2CCCC2)n1` | -0.7149% |
| 33 | `CCCn1cc(Cl)c(C(=O)N2C[C@@H](O)[C@H](Oc3ccccc3)C2)n1` | -11.39% |
| 34 | `CC(=O)Nc1nc(C(=O)N2CCCC2c2ccccc2C)cs1` (centres unmarked) | 23.57% |
| 35 | `Cc1ccc(CNC(=O)Nc2nnc(C)s2)cn1` | 9.53% |
| 36 | `Cc1ccc(CN(C)C)cc1NC(=O)C1CC1` | 27.06% |
| 37 | `Cc1cc(C)c(CNC(=O)N(C)Cc2cccc(C#N)c2)c(=O)[nH]1` | -57.73% |
| 38 | `CCC(Nc1nnnn1-c1ccccc1)C(=O)NC1CCSCC1` (centres unmarked) | 19.18% |
| 39 | `[H][C@]12CC[C@]([H])(CN(Cc3cccnc3)C1)N(C(=O)c1cc(C(C)C)on1)C2` | 10.01% |
| 40 | `COc1ccc(CC(=O)N(C)c2cccnc2N(C)C)c(Cl)c1` | 23.98% |
| 41 | `CCc1cnc(CN(C(C)=O)C2CCN(CCc3cccs3)C2)o1` (centres unmarked) | -7.182% |
| 42 | `CC(C)NC(=O)c1nnn(-c2ccccc2)c1C1CC1` | 18.43% |
| 43 | `Cc1nn(C)cc1C(=O)N1CCCC(n2nnc3cc(F)ccc32)C1` (centres unmarked) | -24.33% |
| 44 | `O=C(O)CC(O)(CC(=O)O)C(=O)O.[H][C@@]12CC[C@@](O)(c3ccc(C)cn3)[C@]1([H])CN(Cc1cnc(OC)nc1)C2` | -1.54% |
| 45 | `CS(=O)(=O)N1CCc2[nH]cnc2C12CCN(C(=O)c1ccc[nH]1)CC2` | 6.556% |
| 46 | `CCc1nc(NC2CCCN(C(=O)c3cccs3)C2)c2cnn(C)c2n1` (centres unmarked) | -16.91% |
| 47 | `O=C(O)C(F)(F)F.[H][C@@]12CCN(Cc3cc(C)on3)C[C@]1(C(=O)NCc1ccco1)CCO2` | 3.935% |
| 48 | `FC(F)(F)COCCN1CCOC(Cn2cccn2)C1` (centres unmarked) | -6.892% |
| 49 | `NC(=O)c1cnc(NC2CCC(c3ccccc3)CC2)c(Cl)c1` (centres unmarked) | 57.03% |
| 50 | `CC(C)n1nc(CN(C)C)c2c1CN(C(=O)CC1CC1)CC2.O=C(O)C(F)(F)F` | 26.55% |
| 51 | `O=C(O)C(F)(F)F.O=C(O)C(F)(F)F.[H][C@@]12COC[C@]1(CN(C)C)CN(C(=O)c1cccnc1OC)C2` | 15.31% |
| 52 | `CCOC(C)c1noc(CN2CCN(c3nnc(C)s3)CC2)n1` (centres unmarked) | 7.865% |
| 53 | `O=C1CCCN1CCCN1CCCC1Cn1cccn1` (centres unmarked) | -6.456% |
| 54 | `COc1nn(C)c2c1CCCN(C(=O)c1cnccn1)C2` | -11.68% |
| 55 | `CN1CC(=O)N(c2cccnc2)CC12CCN(C(=O)C1CCCCC1)C2.O=C(O)C(F)(F)F.O=C(O)C(F)(F)F` (centres unmarked) | -20.31% |
| 56 | `CCS(=O)(=O)N1CCc2ccc(NC(=O)NCCc3ccccc3)cc21` | 30.28% |
| 57 | `Cc1ccccc1-c1csc2c(=O)[nH]c(N3CCCC(C(=O)O)C3)nc12` (centres unmarked) | -29.05% |
| 58 | `Cc1ccn(-c2ccc(C(=O)N3CCCC(C(N)=O)C3)cc2)n1` (centres unmarked) | -18.42% |
| 59 | `CC(C)C1CCCN1C(=O)c1ccc(-n2ncc(C#N)c2N)cc1` (centres unmarked) | 0.2308% |
| 60 | `O=C(CNC(=O)c1cc(Cl)ccn1)Nc1nccs1` | 10.59% |
| 61 | `COCCNC(=O)c1nc(-c2ccc3cc[nH]c3c2)no1` | -9.289% |

The first 5 entries again:

| structure | percent effect |
|---|---|
| `CNC(=O)CN(C)C(=O)c1cc(Cl)c(Cl)n1C` | -13.68% |
| `Cc1nn2cnnc2c(C)c1CCC(=O)Nc1nc2c(s1)CCC2` | 24.68% |
| `CCN(C(=O)CN1CCCC1Cc1ccccc1)c1ccccc1` (centres unmarked) | 12.04% |
| `CC(C)CC(=O)N1CCCCC(NC(=O)CCc2cccnc2)C1` (centres unmarked) | 15.74% |
| `COc1ncc(C(=O)N2CCCC3(C=Cc4ccccc4O3)CC2)cn1` (centres unmarked) | 4.521% |